Data on 17 molecules can be found in PubChem BioAssay AID493014 (National Center for Advancing Translational Sciences (NCATS), 2011).

This is one part of the list. These are further read-outs of the screen, such as a control signal, another cell line or another target. No call is given for them. Compounds called inactive in the main read-out are mostly missing here. Words in brackets tell the shape of the fitted curve; partial curves, single points and poor fits give uncertain potencies.

This test is described as follows: qHTS Assay to Find Inhibitors of Chronic Active B-Cell Receptor Signaling. The note with it: ABC-DLBCL IkBa-CBG/CBR reporter, luminescence ratio (green luciferase fused to IkBa over red control in TMD8 lymphoma cells), 4 h. The essentials: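 Concentration-response series (up to 46 uM) were applied to TMD8 dual-reporter cells for 4 h at 37C with doxycycline. Green/red ratio, after filter-overlap correction, defined %Activity; red signal alone was normalised to basal cells and zero luminescence.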
In general terms: In qHTS, concentration-response curves come from the screen itself.

Setting [1] is: measured here: CBR red luminescence, cell number.

As for `c1ccc2c(c1)oc1c(NCc3ccc4c(c3)OCO4)ncnc12`, the AC50 (usually the concentration at which the activity in the assay is half-maximal) under setting [1] is 12.6 µM [falling, single point].

Turning to `CC[C@H](OC(C)=O)C(C[C@H](C)N(C)C)(c1ccccc1)c1ccccc1`, the AC50 under setting [1] was 29.1 µM [falling, single point].

As for `COC(=O)C1=C(c2ccc(OCc3ccccc3)cc2)C[C@@H]2CC[C@H]1N2C(=O)NCc1ccc(OC)c(OC)c1`, the AC50 runs as follows: under setting [1], 9.2 µM [falling, partial curve]; (measured here: IkBa-CBG green luminescence) 5.17 µM [rising, partial curve, poor fit].

For `Cc1nc2cc(C(=O)N3CCC4(CC3)OCCO4)ccc2n1-c1cccc(F)c1`, the AC50 under setting [1] is 0.0116 µM [rising, full curve, poor fit].

Turning to `O=c1c2ccccc2[nH]c(=S)n1-c1ccc(Br)cc1`, the AC50 under setting [1] is 2.24 µM [falling, full curve].

Turning to `Cc1nnc2ccc(N3CCN(C)CC3)nn12`, the AC50 under setting [1] was 12.6 µM [rising, partial curve, poor fit].

With `CCn1c(O)c(N=Nc2ccc(S(=O)(=O)N3CCOCC3)cc2)c(=O)n(CC)c1=S`, under setting [1], the AC50 is 0.1 µM [falling, full curve, poor fit].

`CCCCOC(=O)c1ccccc1C(=O)OCc1ccccc1`: under setting [1], the AC50 is 16.4 µM [rising, single point].

For `COc1ccc(Cn2c(N)c(C(=O)NCc3ccco3)c3nc4ccccc4nc32)cc1`, the AC50 under setting [1] was 5.62 µM [falling, full curve].

For the molecule `COc1cccc(C(=O)NCC(=O)N2CCC(C)CC2)c1`, the AC50 under setting [1] is 12.6 µM [falling, partial curve].

Turning to `O=[N+]([O-])c1ccc(N2CCNCC2)cc1NCc1ccco1`, the AC50 under setting [1] is 29.1 µM [rising, single point].

On to `C=CCn1c(O)c(C(C)=NCc2ccc3c(c2)OCO3)c(=O)[nH]c1=O`, for which the AC50 under setting [1] was 11.2 µM [falling, partial curve, poor fit].

Take `FC(F)(F)/C(=N\P(=S)(N1CCOCC1)N1CCOCC1)N1CCOCC1`: under setting [1], the AC50 is 0.651 µM [falling, full curve, poor fit].

As for `O=c1[nH]c(=O)n(Cc2ccco2)c(O)c1C=NCCCn1ccnc1`, under setting [1], the AC50 is 29.1 µM [falling, partial curve, poor fit].

As to `CCc1c(C)nc(N)nc1N1N=C1SC(C(C)=O)C(C)=O`, under setting [1], the AC50 is 6.31 µM [falling, full curve].

Consider `CCOc1ccc(-n2c(O)c(C=NCCCn3ccnc3)c(=O)[nH]c2=O)cc1`, for which the AC50 under setting [1] was 20.6 µM [rising, partial curve, poor fit].

Regarding `CCc1ccc(N2C(=O)NC(=O)/C(=C/c3ccsc3)C2=O)cc1`, under setting [1], the AC50 is 31.6 µM [rising, single point].
